Results as given in patent US7186551B1, “3′-phosphoadenosine -5′-phosphosulfate synthetase 2 (PAPSS2) sequence variants” (Mayo Foundation for Medical Education and Research, priority 2001, dated 2007).

Tested on: PAPSS2
Assay: Substrate kinetic studies of recombinant PAPSS2 with ATP and Na2SO4
Assay type: biochemical, human
Conditions: for Kinetic model, ATP: ATP varied 0.125-4 mM, Na2SO4 4 mM; for Kinetic model, Na2SO4: Na2SO4 varied 0.125-16 mM, ATP 1 mM
Procedure: To estimate apparent Km values of PAPSS2 for the two reaction cosubstrates, a series of ATP (0.125–4 mM) and Na2SO4 (0.125–16 mM) concentrations were tested with the recombinant allozymes. When ATP was the varied substrate, the concentration of Na2SO4 was 4 mM, and when Na2SO4 was the varied substrate, the concentration of ATP was 1 mM. Blanks for each substrate concentration were included by assaying COS-1 cell cytosol after transfection with empty vector.
Data Analysis: Apparent Km values were calculated by using the method of Wilkinson with a computer program written by Cleland. Wilkinson, Biochem. J., 80:324–332 (1961); and Cleland, Nature, 198:[…] (1963). Statistical comparisons of data were performed by ANOVA with the StatView program, version 4.5 (Abacus Concepts, Inc., Berkeley, Calif.). Apparent Km, S50 and Vmax values for the wild-type and variant PAPSS2 allozymes were compared by the use of unpaired Student's t-test.
Alterations in amino acid sequence can alter enzyme substrate affinity and/or catalytic efficiency. Decreased activity of the Val291Met allozyme—without a significant alteration in level of enzyme protein—could have resulted from a change in substrate kinetics. Therefore, a series of ATP (0.125–4 mM) and Na2SO4 (0.125–16 mM) concentrations were used to estimate apparent Km values for recombinant wild type PAPSS2 and for the Val291Met variant allozyme. […] ATP concentrations at which 50% maximal velocity was achieved (S50 values) were 0.70 and 0.95 mM for the wild type and variant allozymes, respectively (Table 4). In both cases, the Hill coefficient was greater than 2, […]. In contrast, substrate kinetics of both allozymes for Na2SO4 conformed to Michaelis-Menten predictions (FIG. 5B). […] In summary, decreased activity for the Val1291Met variant appeared to result from an alteration in substrate kinetics, while decreased activity for the Glu10Lys allozyme, in contrast, resulted primarily from a decrease in the quantity of enzyme protein. Because the Val291Met variant was encoded by a construct that contained the most common PAPSS2 nonsynonymous cSNP, these observations could have functional implications for the sulfate conjugation of both endogenous and/or exogenous compounds.

Molecule | Kinetic model, ATP | Kinetic model, Na2SO4
wild type: reference human PAPSS2 polypeptide (SEQ ID NO:9, GenBank AF091242), recombinantly expressed in COS-1 cells (protein, listed as Homo sapiens) MSGIKKQKTENQQKSTNVVYQAHHVSRNKRGQVVGTRGGFRGCTVWLTGLSGAGKTTISFALEEYLVSHAIPCYSLDGDNVRHGLNRNLGFSPGDREENIRRIAEVAKLFADAGLVCITSFISPFAKDRENARKIHESAGLPFFEIFVDAPLNICESRDVKGLYKRARAGEIKGFTGIDSDYEKPETPERVLKTNLSTVSDCVHQVVELLQEQNIVPYTIIKDIHELFVPENKLDHVRAEAETLPSLSITKLDLQWVQVLSEGWATPLKGFMREKEYLQVMHFDTLLDDGVINMSIPIVLPVSAEDKTRLEGCSKFVLAHGGRRVAILRDAEFYEHRKEERCSRVWGTTCTKHPHIKMVMESGDWLVGGDLQVLEKIRWNDGLDQYRLTPLELKQKCKEMNADAVFAFQLRNPVHNGHALLMQDTCRRLLERGYKHPVLLLHPLGGWTKDDDVPLDWRMKQHAAVLEEGVLDPKSTIVAIFPSPMLYAGPTEVQWHCRSRMIAGANFYIVGRDPAGMPHPETKKDLYEPTHGGKVLSMAPGLTSVEIIPFRVAAYNKAKKAMDFYDPARHNEFDFISGTRMRKLAREGENPPDGFMAPKAWKVLTDYYRSLEKN | Allosteric | Michaelis-Menten
Val291Met: PAPSS2 polypeptide allozyme having a methionine at amino acid 291 in place of valine (adenine at nucleotide 871) (protein) MSGIKKQKTENQQKSTNVVYQAHHVSRNKRGQVVGTRGGFRGCTVWLTGLSGAGKTTISFALEEYLVSHAIPCYSLDGDNVRHGLNRNLGFSPGDREENIRRIAEVAKLFADAGLVCITSFISPFAKDRENARKIHESAGLPFFEIFVDAPLNICESRDVKGLYKRARAGEIKGFTGIDSDYEKPETPERVLKTNLSTVSDCVHQVVELLQEQNIVPYTIIKDIHELFVPENKLDHVRAEAETLPSLSITKLDLQWVQVLSEGWATPLKGFMREKEYLQVMHFDTLLDDGMINMSIPIVLPVSAEDKTRLEGCSKFVLAHGGRRVAILRDAEFYEHRKEERCSRVWGTTCTKHPHIKMVMESGDWLVGGDLQVLEKIRWNDGLDQYRLTPLELKQKCKEMNADAVFAFQLRNPVHNGHALLMQDTCRRLLERGYKHPVLLLHPLGGWTKDDDVPLDWRMKQHAAVLEEGVLDPKSTIVAIFPSPMLYAGPTEVQWHCRSRMIAGANFYIVGRDPAGMPHPETKKDLYEPTHGGKVLSMAPGLTSVEIIPFRVAAYNKAKKAMDFYDPARHNEFDFISGTRMRKLAREGENPPDGFMAPKAWKVLTDYYRSLEKN | Allosteric | Michaelis-Menten
